Results on 1 molecule are retold here after article PMC9765454.

No constants are given. Whether binding was seen depends on the method and setting. In cells and extracts the contact can be indirect. Some binding calls cover weakened binding; strength is not graded here.

This test concerns the target T1, SOCS1 (suppressor of cytokine signaling 1), endogenous in BMDC (mouse (endogenous in BMDC)) (UniProt O35716).
T1 sequence: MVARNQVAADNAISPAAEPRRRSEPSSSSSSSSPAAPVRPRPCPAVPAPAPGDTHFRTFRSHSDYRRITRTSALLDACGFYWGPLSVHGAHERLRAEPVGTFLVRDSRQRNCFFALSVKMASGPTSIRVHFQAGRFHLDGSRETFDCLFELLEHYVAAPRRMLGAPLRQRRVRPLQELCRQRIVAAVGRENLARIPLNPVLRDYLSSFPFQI
Put plainly: co-IP; endogenous; whole-cell lysates of BMDC stimulated with STAg for the indicated times; anti-SOCS1 overnight, then protein A/G agarose beads for 4 h; washed 5 times with low-salt lysis buffer (50 mM HEPES, 150 mM NaCl, 1 mM EDTA, 10% glycerol, 1.5 mM MgCl2, 1% Triton X-100); immunoblot. Background: In western blotting, separated proteins are transferred to a membrane and probed.

B1: IRF3 (interferon regulatory factor 3), endogenous in BMDC (protein, UniProt P70671 1-419)
chain: METPKPRILPWLVSQLDLGQLEGVAWLDESRTRFRIPWKHGLRQDAQMADFGIFQAWAEASGAYTPGKDKPDVSTWKRNFRSALNRKEVLRLAADNSKDPYDPHKVYEFVTPGARDFVHLGASPDTNGKSSLPHSQENLPKLFDGLILGPLKDEGSSDLAIVSDPSQQLPSPNVNNFLNPAPQENPLKQLLAEEQWEFEVTAFYRGRQVFQQTLFCPGGLRLVGSTADMTLPWQPVTLPDPEGFLTDKLVKEYVGQVLKGLGNGLALWQAGQCLWAQRLGHSHAFWALGEELLPDSGRGPDGEVHKDKDGAVFDLRPFVADLIAFMEGSGHSPRYTLWFCMGEMWPQDQPWVKRLVMVKVVPTCLKELLEMAREGGASSLKTVDLHISNSQPISLTSDQYKAYLQDLVEDMDFQATGNI
Take B1: the binding result is “binds”.
